All values are in %.
The record does not define 0% and 100%; most values in the screen are far below 50% and negative numbers occur (in some assays of this library far below -100).
Compounds were drawn at random from those tested, without regard to their results.

By UniProt entry, the sequences of proteins in these tests, tags left out.
UniProt E9BF75, entry or part of it: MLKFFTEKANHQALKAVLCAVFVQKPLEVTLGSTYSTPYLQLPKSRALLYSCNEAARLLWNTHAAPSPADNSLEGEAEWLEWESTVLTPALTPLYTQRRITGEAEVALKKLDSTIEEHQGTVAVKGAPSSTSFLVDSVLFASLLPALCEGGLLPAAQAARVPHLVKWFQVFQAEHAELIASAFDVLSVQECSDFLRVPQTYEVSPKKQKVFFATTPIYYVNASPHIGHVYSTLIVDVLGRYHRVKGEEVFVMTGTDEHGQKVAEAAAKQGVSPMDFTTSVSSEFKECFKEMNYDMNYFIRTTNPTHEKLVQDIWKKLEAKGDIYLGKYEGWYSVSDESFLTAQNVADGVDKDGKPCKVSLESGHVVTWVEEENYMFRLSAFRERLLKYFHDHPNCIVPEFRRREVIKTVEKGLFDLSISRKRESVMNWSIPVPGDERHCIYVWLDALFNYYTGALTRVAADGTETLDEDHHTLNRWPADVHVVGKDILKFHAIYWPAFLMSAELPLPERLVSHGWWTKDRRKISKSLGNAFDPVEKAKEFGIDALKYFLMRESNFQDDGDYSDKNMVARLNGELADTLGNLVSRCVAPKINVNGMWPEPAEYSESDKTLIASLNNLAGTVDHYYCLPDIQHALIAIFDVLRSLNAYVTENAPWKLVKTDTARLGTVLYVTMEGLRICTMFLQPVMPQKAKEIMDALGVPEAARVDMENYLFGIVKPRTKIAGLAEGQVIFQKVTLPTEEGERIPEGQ

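Primary screen of methionyl-tRNA synthetase; the read-out is not stated. Target: Methionyl-tRNA synthetase (putative), Leishmania donovani (UniProt E9BF75). The test concentration is not given. The values are filed as inhibition. Of about 68,000 compounds tested this way, about 24 (0.035%) reached 50% or more in at least one test.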

structure,Inhibition
CNc1cccc(C2CCCN(C(=O)c3cscn3)C2)n1 (centres undefined),13.56%
COc1cccc(OCCc2nc3c(cc2C(N)=O)CCC3)c1,8.094%
Cn1cnc2c1C(COCC1CCOCC1)CN(Cc1ccccn1)C2 (centres undefined),16.19%
Cc1nccn1CC1CCCN1S(=O)(=O)Cc1ccccc1 (centres undefined),0.4695%
c1cnc(NCc2cncc3c2CCN(CC2CC2)C3)nc1,13.44%
NC(=O)C1CCCN1Cc1ccccc1NC(=O)Cc1cccs1 (centres undefined),1.804%
Cc1ccc(CCCC(=O)N2CCC(=O)Nc3cccnc32)s1,8.362%
O=C(NCC(O)c1ccc(F)cc1F)c1ccccc1 (centres undefined),12.09%
COc1ccc(Cn2c(=O)n(C)c(=O)c3sccc32)cc1,14.91%
CCOC(=O)C1CCN(C(=O)Cc2c(C)nc(C)[nH]c2=O)CC1,11.14%
Cc1nc(C)n(CC2CCCN(Cc3ncc(C(C)(C)C)o3)C2)n1 (centres undefined),12.25%
CC(C)c1nsc(N2CCn3c(nnc3-c3ccccc3)C2)n1,21.43%
CCOCCCNC(=O)c1nc2c(s1)CCCN2c1ccc(C)nn1,6.015%
Cc1cc(C(F)(F)F)cc(N2C[C@@H](CN(C)CCO)[C@@H](CO)C2)n1,16.27%
N#Cc1ccc(S(=O)(=O)Nc2cnn(C3CCOCC3)c2)cc1,11.27%
CCOCC(O)CN1CCN(C(=O)C2CC2)CC1 (centres undefined),5.882%
NC1CCCc2nc(-c3ccccc3)ncc21 (centres undefined),9.025%
Cc1cnn(C2CN(CC(=O)NCCOc3ccccc3)C2)c1,21.71%
Cc1nnn2c1COC(CNCc1ccccn1)C2 (centres undefined),13.49%
CCc1cc(N(C)CCCO)n2nccc2n1,9.719%
CSc1ccc(NCC(=O)NC(=O)NCC(F)(F)F)cc1F,0.3436%
CCc1nccn1C1CCCN(C(=O)c2csc(NC(C)=O)n2)C1 (centres undefined),8.711%
COc1ccc(Oc2cccnc2)cc1CN1CCCC1,5.025%
CCc1ccccc1CNC(=O)CCc1cnn(C)c1,7.547%
O=C(O)[C@@H]1CN(C(=O)c2ccc3[nH]nnc3c2)C[C@H]1c1cccc(F)c1,14.5%
CCOc1cc(C(=O)N2CCN(CC)CC2)cc2occc12,22.38%
CN(C)c1cc2c(nn1)CCN(C(=O)C1COc3ccccc3C1)C2 (centres undefined),5.944%
Cc1cccnc1CC(C)NC1CCSCC1 (centres undefined),14.93%
COc1ccc(C(C)NCCc2ccc(NC(C)=O)cc2)c(OC)c1 (centres undefined),5.079%
Cn1cc(CN2CCC3(CC2)CCN(C(=O)c2cscn2)CC3)cn1,15.62%
Cc1cncc(C2CCN(C(=O)c3ccc(-n4cccn4)nc3)CC2)n1,19.62%
COc1ccc(C2CC(=O)Oc3cc(C)[nH]c(=O)c32)cc1 (centres undefined),12.86%
CC(=O)Nc1cccc([C@H]2C[C@@H](NC(C)=O)CCO2)c1,7.812%
Cc1cc(CNC(=O)NCc2ccccc2N2CCOCC2)no1,3.727%
CCN1C(=O)C(C#N)=C(C)/C(=C/C2=Cc3ccccc3OC2)C1=O,5.152%
NC(=O)c1ccc(C2CCCN2C(=O)CCc2nc3ccccc3s2)s1 (centres undefined),13.75%
Cn1cc(CN2CCC(F)(F)C3(CCN(c4cccc(F)c4)C3)C2)cn1 (centres undefined),0.2208%
CCc1nnc2n1CCN(CC(=O)Nc1cc(C)nn1C)C2,13.11%
CCS(=O)(=O)c1cccc(C(=O)Nc2cccc3c2C(=O)N(C)C3=O)c1,7.914%
O=C(c1cccnc1O)N(Cc1ccsc1)CC1CCCO1 (centres undefined),6.884%
O=C([C@@H]1COC[C@H]2CN(C3CCCCC3)C[C@H]21)N1CCOCC1,14.57%
Cc1ccc(C2CSCCN2C(=O)c2ccnc(N(C)C)c2)o1 (centres undefined),7.434%
NC(=O)NC(=O)CCSCc1coc(-c2ccc(F)cc2)n1,10.9%
CC(O)CN1CCN(C(=O)c2cnn(-c3ccc(Cl)cc3)c2)CC1 (centres undefined),10.73%
Cc1nc(-c2ccc(S(=O)(=O)N3CCOCC3)cc2)co1,12.14%
CSCC[C@H]1CN2CCC[C@H]2CN1Cc1coc2ccc(C)cc2c1=O,4.037%
CSC1(CNC(=O)N(C)Cc2ccc(C)s2)CCOCC1,7.666%
O=c1c(NCCCO)c(N2CCN(c3ccccc3)CC2)c1=O,16.91%
CN([C@@H]1CC[C@@H](N2CCOCC2)[C@@H]1O)S(=O)(=O)c1ccccc1,14.06%
Cc1nc2c(c(NCCc3nccs3)n1)CCN(CC1CC1)CC2,12.38%
O=C1CC2(CCCNC2)C(=O)N1Cc1ccc(Cl)cc1 (centres undefined),5.042%
Cc1noc2ncc(S(=O)(=O)N3CCCC(C)(C)CC3)cc12,18.23%
O=C(N[C@@H]1CCNC[C@H]1O)c1ccc(O)c(Cl)c1,-7.311%
Cc1nccc(N[C@H]2CN(C(=O)CN3CCCC3=O)C[C@@H]2C(C)C)n1,9.296%
NC(=O)N1CC[C@H]2CO[C@H](CNC(=O)c3ccnnc3)[C@H]2C1,14.98%
Cc1ccc(Cl)cc1N1CCC(CNC(=O)CCn2ccnc2)C1 (centres undefined),21.47%
CCCOCCNc1nc2c(s1)c(C)nn2C,-44.1%
CCS(=O)(=O)N1C[C@H]2CN(c3cnn(C)c3)C(=O)[C@H]2C1,11.96%
CN(Cc1cnn(C)c1)S(=O)(=O)N1CCc2ccccc2C1,0.4819%
O=C(NCC(F)(F)F)C1CSCN1S(=O)(=O)c1ccc(F)cc1 (centres undefined),18.75%
O=C(C[S+]([O-])Cc1ccc(Cl)cc1Cl)N1CCc2sccc2C1 (centres undefined),6.015%
CN1CCOC(CNCC(=O)NCCc2ccc(F)cc2)C1 (centres undefined),-1.397%
CC(C)N(C)C(=O)c1ccc(Cl)c(NC(=O)C2CCC2)c1,10.65%
Cc1ccc(-c2ccc(CC3NCCN(C)C3=O)cc2)cc1 (centres undefined),1.929%
CN(Cc1cccs1)Cc1nnsc1Cl,11.38%
O=C1[C@@H]2CCN(CC3CC3)C[C@@H]2OCCN1c1ccsc1,6.767%
CCC(CNS(N)(=O)=O)Oc1ccccc1F (centres undefined),6.964%
COc1ccc(C(C)NC(=O)c2nn(C)c(C)c2Br)cc1 (centres undefined),7.434%
CN(C)C(=O)CS(=O)(=O)Cc1ccn(-c2cccc(F)c2)n1,1.902%
CN1CCN(C[C@H]2OC[C@@H]3CCN(C(=O)c4cnccn4)C[C@@H]32)CC1,10.22%
COCCN1CCC(CN(C)c2nc3c(s2)c(C)nn3C)C1 (centres undefined),10.99%
Cc1cc(C)n(CC(C)NCc2nc(-c3cccnc3)no2)n1 (centres undefined),7.649%
Clc1cc(Cl)cc(CN2CCC(NCc3cc[nH]n3)CC2)c1,15.06%
Cc1cc(C)nc(Nc2nccnc2C2CCCN(C(CO)CO)C2)n1 (centres undefined),11.64%
CCCOCC1CCN(C(=O)Cn2cccc(C(F)(F)F)c2=O)C1 (centres undefined),3.833%
CCC1CCCN(C(=O)Cc2csc(-c3ncccn3)n2)C1 (centres undefined),10.2%
Cc1ccc(CNc2cnn(CC(F)F)c2)cc1C,8.659%
O=C(NCc1cccs1)C1CCCN(c2cc(-n3cncn3)ncn2)C1 (centres undefined),12.95%
O=C1NCC2(CCCN(C(=O)c3c[nH]nc3C3CCCCC3)C2)O1 (centres undefined),11.58%
CC(C)N1[C@H](Cn2cncn2)C[C@@H]2CN(Cc3nccn3C)CC[C@@H]21,12.89%
O=C1CO[C@@H]2CN(Cc3ccsc3)C[C@H]2N1Cc1ccncc1,8.497%
Fc1ccc(-c2n[nH]cc2-c2ccnc(NCCN3CCCC3)n2)cc1,-1.399%
Cc1cc(C)n(C2CN(C(=O)Cn3c(=O)c(C)nc4ccccc43)C2)n1,9.028%
CC(Cn1cnc2cn(C)nc2c1=O)Oc1cccnc1 (centres undefined),12.93%
Cc1nnc(CN2C[C@H]3CC[C@@H]2CN(C2Cc4ccccc4C2)C3)o1,21.25%
Cc1occc1C(=O)Nc1cnn(CCN2CCOCC2)c1,4.918%

Repeated from the top, 7 entries:

{"structure": "CNc1cccc(C2CCCN(C(=O)c3cscn3)C2)n1", "stereo": "centres undefined", "Inhibition": 13.56}
{"structure": "COc1cccc(OCCc2nc3c(cc2C(N)=O)CCC3)c1", "Inhibition": 8.094}
{"structure": "Cn1cnc2c1C(COCC1CCOCC1)CN(Cc1ccccn1)C2", "stereo": "centres undefined", "Inhibition": 16.19}
{"structure": "Cc1nccn1CC1CCCN1S(=O)(=O)Cc1ccccc1", "stereo": "centres undefined", "Inhibition": 0.4695}
{"structure": "c1cnc(NCc2cncc3c2CCN(CC2CC2)C3)nc1", "Inhibition": 13.44}
{"structure": "NC(=O)C1CCCN1Cc1ccccc1NC(=O)Cc1cccs1", "stereo": "centres undefined", "Inhibition": 1.804}
{"structure": "Cc1ccc(CCCC(=O)N2CCC(=O)Nc3cccnc32)s1", "Inhibition": 8.362}

Source: ChEMBL document CHEMBL3988442, “University of Dundee, Small-Polar-MMV Screening Library” (2021).